The results in this text go back to patent US5472841.

By UniProt entry, the sequences of proteins in these tests, tags left out. Residues count along the entry.
UniProt P09038, 143-288: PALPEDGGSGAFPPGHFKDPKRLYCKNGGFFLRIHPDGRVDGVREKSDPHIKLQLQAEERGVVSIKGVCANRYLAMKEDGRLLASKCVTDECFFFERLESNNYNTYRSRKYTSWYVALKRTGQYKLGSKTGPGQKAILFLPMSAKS

For some of these results: Construct, isoform or probe ends are uncertain for at least one entry. For some of these results: Negatives hold for the conditions tested. For some of these results: Tags and fusion partners may be left off the protein sequences shown.

Data set [1] has as its target T1, Human neutrophil elastase (Homo sapiens) (UniProt P08246).
T1 sequence (looked up, limits assumed): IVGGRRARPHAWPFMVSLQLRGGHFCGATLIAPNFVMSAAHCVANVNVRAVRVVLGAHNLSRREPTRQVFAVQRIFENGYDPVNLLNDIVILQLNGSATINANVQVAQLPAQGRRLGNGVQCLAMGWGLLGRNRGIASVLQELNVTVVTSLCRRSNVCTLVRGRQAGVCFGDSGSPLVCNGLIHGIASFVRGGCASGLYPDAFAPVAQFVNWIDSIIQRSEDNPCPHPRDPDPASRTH
In words: activity in cells. The following applies: 2'-NH2 all pyrimidines; inhibits elastase-induced endothelial cell detachment; purified native protein; protein details: Athens Research and Technology; dose not given here.

The target of data set [2] is T1, Human neutrophil elastase (Homo sapiens). In words: filter binding. To be noted: purified native protein, protein details: Athens Research and Technology; for Kd: 2'-NH2 all pyrimidines.
Data set [3] has as its target T2, Human neutrophil elastase irreversibly complexed with N-methoxysuccinyl-Ala-Ala-Pro-Val-chloromethyl ketone (Homo sapiens) (UniProt P08246).
T2 sequence (looked up, limits assumed): T1 sequence (looked up, limits assumed)
In words: filter binding. To be noted: 2'-NH2 all pyrimidines; active site blocked; purified native protein.

Data set [4] has as its target Basic fibroblast growth factor (bFGF) (UniProt P09038). The experiment in a line: filter binding. To be noted: 2'-NH2 all pyrimidines; specificity control; purified recombinant protein.
The mark [5] stands for this setting: 150 mM KCl, 100 mM Tris pH 7.0, 2 mM MgCl2.
[6] abbreviates: 150 mM LiCl, 100 mM Tris pH 7.0, 2 mM MgCl2.

By Kd is commonly meant the constant that tells how readily two partners part at equilibrium.

For the sequence “GGGAGCUCAGAAUAAACGCUCAAUGCCCGGCAGUACUGCACGGCCUCGGGGGGGACCAGGGAGUUCGACAUGAGGCCCGGAUCCGGC [ligand 19 (class IV)]”, the “functional effect of the aptamer” value in data set [1] is given as “active”.

In the case of “GGGAGCUCAGAAUAAACGCUCAAGGAAUGAAUGUGAUGAACAGGUGUCGGGGUGGAUGGGUGGUUCGACAUGAGGCCCGGAUCCGGC [ligand 9 (class III)]”, the Kd in data set [2] (6 mM KCl, 2 mM MgCl2, pH 7.0, 9.7 nM in Table 3) turned out to be 10 nM; in data set [2] (setting [5]), 378 nM; in data set [2] (setting [6]) it was 231 nM; in data set [2] (150 mM Tris-HCl, 2 mM MgCl2) it was 34 nM.

Turning to “GGGAGCUCAGAAUAAACGCUCAAGGUAGACAUACGCCUUGGGGGGGUGCCAGGGUAUAUGGUAUUCGACAUGAGGCCCGGAUCCGGC [ligand 34 (class II)]”, the Kd in data set [3] was determined as 26 nM; in data set [2] (6 mM KCl, 2 mM MgCl2, pH 7.0), 8 nM; in data set [2] (setting [5]), 5.5 nM; in data set [2] (setting [6]), 669 nM; in data set [2] (150 mM Tris-HCl, 2 mM MgCl2), 59 nM; in data set [2] (native elastase control in same experiment as the chloromethyl ketone complex), 25 nM.

On to “TAGCGATACTGCGTGGGGGGGGGGGGCCAGCAGTCTCGTGCGGTACTTGAGCA [17-LQT]”, for which the binding result in data set [2] (18-carbon ethylene glycol linker (L) replacing connecting loop nucleotides (n positions) [L = 18-carbon ethylene glycol linker (left out) between 17/18, 20/21, 23/24], no significant affinity, single-stranded DNA, letters built from the parent sequence and the stated change, variant of DNA-17) is given as “no binding”.

On to “GGGAGCUCAGAAUAAACGCUCAAGGUAGACAUACGCCUUGGGGGGGUAUCAGGGUAUAUGGUAUUCGACAUGAGGCCCGGAUCCGGC [ligand 24 (class II)]”, for which the Kd in data set [4] was more than 1000 nM. Besides, the “functional effect of the aptamer” value in data set [1] is recorded as “active”.

As for “GGGAGCUCAGAAUAAACGCUCAAGAGUAGGCUUGACGCCUGGGGGGGUAUGGCUUCGACUGCGUUCGACAUGAGGCCCGGAUCCGGC [ligand 30 (class I; ligand 12 same SEQ ID)]”, the Kd was found to be 3.8 nM in data set [2] (setting [5]); 581 nM in data set [2] (setting [6]); 38 nM in data set [2] (150 mM Tris-HCl, 2 mM MgCl2); 10 nM in data set [2] (binding buffer 150 mM NaCl, 100 mM Tris pH 7.0, 2 mM MgCl2, 6 mM KCl, 37C, ligand 12 (same SEQ) also 10 nM in Table 4). Moreover, the “functional effect of the aptamer” value in data set [1] was “active”.
